Tests used:
[1] = Prediction of Log(M*/C) from measured C and R by Equation 2; parameters: species or system rat; conditions: M* determined as a function of measured C and R values (Eq. 2)
[2] = Measurement 1: migration M of drug ion to skin with membrane type iontophoresis device; type: in vitro ADME, rat
Excerpt: In some embodiments, a working side assembly 10 of the device 1 may include a working side electrode (negative electrode) 11; an electrolyte solution holding portion 12 for holding a physiological salt solution; a cation exchange membrane 13 on the front surface side of the electrolyte solution holding portion; a drug solution holding portion 14 for holding a drug solution on the front surface side of the cation exchange membrane 13; and an anion exchange membrane 15 on the front surface side of the drug solution holding portion.
In some embodiments, a non-working side assembly 20 of the device 1 may include a non-working side electrode (positive electrode) 21; an electrolyte solution holding portion 22 for holding a physiological salt solution; an anion exchange membrane 23 on the front surface side of the electrolyte solution holding portion 22; an electrolyte solution holding portion 24 for holding a physiological salt solution on the front surface side of the anion exchange membrane 23; and a cation exchange membrane 25 on the front surface side of the electrolyte solution holding portion 24. […]
The above measurement was performed 3 times for each sample, and the average value of the measurements was determined as the migration M.

COc1ccc2cc([C@H](C)C(=O)O)ccc2c1 [Naproxen]
Predicted Log(M*/C) [1]: −0.85
Log(M/C) ([2]; from measured M and C): −0.91
LogM ([2]; log of migration M, rat back skin, 6.25 mM, 0.94 mA, 60 minutes): 2.79

Reference: US7925520B2, “Methods of predicting dose of drug and program for predicting dose of drug” (priority 2007, dated 2011)
